# Results reported in patent US8835470B2, “Mandelamide heterocyclic compounds” (Bristol-Myers Squibb Company, priority 2010, dated 2014).
# Protein sequences, listed by entry. Tags and fused reporters are not part of them.
# UniProt P21453, whole entry: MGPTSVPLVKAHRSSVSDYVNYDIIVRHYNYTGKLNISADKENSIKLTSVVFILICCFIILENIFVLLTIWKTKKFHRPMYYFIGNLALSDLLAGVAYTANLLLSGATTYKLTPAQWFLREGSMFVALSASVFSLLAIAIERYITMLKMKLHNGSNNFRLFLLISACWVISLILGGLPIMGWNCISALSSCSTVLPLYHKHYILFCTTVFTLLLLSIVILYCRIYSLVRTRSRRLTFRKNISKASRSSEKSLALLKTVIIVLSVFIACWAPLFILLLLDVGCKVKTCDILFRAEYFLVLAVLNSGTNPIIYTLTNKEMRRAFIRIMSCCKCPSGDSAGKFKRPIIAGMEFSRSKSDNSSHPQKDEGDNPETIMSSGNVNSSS
# At least one compound was matched to its structure with a doubt left.
# Target: S1P1 (Homo sapiens (Human), UniProt P21453)
# Test: Receptor [35S] GTPγS Binding Assay, S1P1
# Format: biochemical
# Details: ratio of GTPγS S1P3 EC50 to GTPγS S1P1 EC50; * and ** S1P3 value at detection limit
# Experimental: Receptor [35S] GTPγS Binding Assays
# Membranes prepared from S1P1/CHO cells or EDG3-Ga15-bla HEK293T cells were added to the compound plate (40 μl/well, final protein 3 μg/well) with MULTIDROP®. [^35S]GTP (1250 Ci/mmol, Perkin Elmer) was diluted in assay buffer: 20 mM HEPES, pH7.5, 10 mM MgCl2, 150 mM NaCl, 1 mM EGTA, 1 mM DTT, 10 μM GDP, 0.1% fatty acid free BSA, and 10 μg/ml Saponin to 0.4 nM. 40 μl of the [^35S] GTP solution was added to the compound plate with a final concentration of 0.2 nM. The reaction was kept at room temperature for 45 min. At the end of incubation, all the mixtures in the compound plate were transferred to a 384 well FB filter plates via GPCR robot system. The filter plate was washed with water 4 times by using the modified manifold Embla plate washer and dried at 60° C. for 45 min. 30 μl of MicroScint 20 scintillation fluid was added to each well for counting at Packard TOPCOUNT®.
# A larger value for the GTPγS S1P3 EC50 value indicated less activity in the GTPγS S1P3 binding assay.
smiles,measurement,value
"CC(C)(C)OC(=O)NCCNC(=O)C(O)c1ccc(-c2noc(-c3onc(-c4ccccc4)c3C(F)(F)F)n2)cc1 (racemic) [Example 51, (R/S)-tert-Butyl 2-(2-hydroxy-2-(4-(5-(3-phenyl-4-(trifluoromethyl)isoxazol-5-yl)-1,2,4-oxadiazol-3-yl)phenyl)acetamido)ethylcarbamate]",GTPγS S1P3/S1P1,153
